Results as given in PMC12223778.

Protein sequences, listed by entry. Tags and fused reporters are not part of them.
UniProt P51149: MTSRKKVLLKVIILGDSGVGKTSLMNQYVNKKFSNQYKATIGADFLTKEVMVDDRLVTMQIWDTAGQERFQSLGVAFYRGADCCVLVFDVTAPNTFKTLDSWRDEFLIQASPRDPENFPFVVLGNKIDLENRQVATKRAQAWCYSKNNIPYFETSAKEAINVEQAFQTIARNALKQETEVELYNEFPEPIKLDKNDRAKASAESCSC

Target: T1, Sestrin2 (SESN2), stably overexpressed in HK-2 cells (LV-SESN2) (UniProt P58004)
T1 sequence: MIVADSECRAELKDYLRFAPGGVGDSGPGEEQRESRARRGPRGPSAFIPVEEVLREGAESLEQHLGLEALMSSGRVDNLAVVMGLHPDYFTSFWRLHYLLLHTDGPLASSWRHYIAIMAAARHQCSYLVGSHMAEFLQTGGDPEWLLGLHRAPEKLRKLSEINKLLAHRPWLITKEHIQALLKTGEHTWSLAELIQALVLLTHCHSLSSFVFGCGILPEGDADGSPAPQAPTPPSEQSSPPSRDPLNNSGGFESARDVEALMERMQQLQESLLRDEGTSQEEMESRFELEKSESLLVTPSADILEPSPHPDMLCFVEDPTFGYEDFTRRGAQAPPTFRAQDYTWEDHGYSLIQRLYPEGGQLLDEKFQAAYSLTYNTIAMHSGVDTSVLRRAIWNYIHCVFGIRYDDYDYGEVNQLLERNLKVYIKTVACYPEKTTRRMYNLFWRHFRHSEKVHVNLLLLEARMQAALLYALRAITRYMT
Assay: affinity purification with mass spectrometry; anti-SESN2 antibody (IgG as control) on protein A magnetic beads, incubated with whole-cell lysates of SESN2-overexpressing HK-2 cells overnight at 4 °C; SDS-PAGE, Coomassie blue, MS

binding: binds
Substance: Rab-7a (from UniProt P51149 1-207)

Results are given in words; binding and its absence hold for the method and conditions named. Binding seen in cells or lysates may run through a third protein. A yes stands for co-enrichment or nearness to the bait. Other partners may have been found.
